Experimental data published in patent publication US11370779B2, “Pharmaceutical composition for preventing or treating acute myeloid leukemia or metastatic breast cancer” (PELEMED CO., LTD., priority 2017, dated 2022).
Entries after “also recorded” stand apart in the source; their conditions may differ. At least one compound was matched to its structure with a doubt left. Some compounds share one wording; it may come from a single statement.

How the values were obtained:
[1] = system: STATS, a downstream signaling of FLT3; test: Phosphorylation of STAT5, downstream signaling of FLT3; format: cell-based
[2] = system: MV4;11 cells; test: Apoptosis and cell cycle effects of LDD1937; format: cell-based, human
[3] = system: MV4;11 xenograft; test: MV4;11 mouse tumor xenograft, intravenous LDD1937; format: in vivo
Procedure: The drug or the control PBS was injected daily for a duration of 21 days.

[4] = system: MDA-MB-231 xenograft; test: MDA-MB-231 mouse tumor xenograft; format: in vivo; conditions: 20 mg/kg/p.o/day, 4 weeks; for volume of cancer tissue: compared with doxorubicin 5 mg/kg i.p. once a week; for anticancer effect at dissection of the tumor injection site: vs doxorubicin Comparative Group
Procedure: 6-weeks-old Balb/c nu/nu mice (female) were purchased from Central Lab. Animal Inc. to be used. […] The candidate substances LDD-2614 (Compound 21), 2633 (Compound 28), 2634 (Compound 34), 2635 (Compound 33) were administered at 20 mg/kg/p.o/day, and doxorubicin, which was a control, was administered at 5 mg/kg/i.p (once a week) for 4 weeks.

SMILES	phosphorylation of STAT5 [1]	apoptotic cell death [2]	cell cycle [2]	tumor weight ([3]; 5 mg/kg i.v. daily, day 21, vs control)	tumor size / tumor volume ([3]; 5 mg/kg or 10 mg/kg i.v. daily for 21 days, vs PBS control, listed as LDD1937, dihydrochloride)	tumor mass at dissection of the tumor injection site ([3]; 10 mg/kg i.v. daily, day 21)	weight of cancer tissue [4]	volume of cancer tissue [4]	anticancer effect at dissection of the tumor injection site [4]
COC(=O)c1ccc2c(c1)/C(=C1/Nc3ccccc3/C1=N\OCCN1CCNCC1)C(=O)N2.Cl.Cl [Compound 4, Methyl (2Z,3E)-2′-oxo-3-((2-(piperazin-1-yl)ethoxy)imino)-[2,3′-biindolinylidene]-5′-carboxylate dihydrochloride]	significantly reduced by LDD1937 in a dose-dependent manner	induced apoptotic cell death	cell cycle arrest at the G2/M phase and increased the cell population at the sub-G1 phase	significant decrease in the tumor weight	significantly smaller than those of the control group; also recorded: significantly decreased compared to the control group	complete disappearance of the tumor mass	–	–	–
Cl.Cl.O=C1Nc2ccc(F)cc2/C1=C1/Nc2ccc(F)cc2/C1=N\OCCN1CCNCC1 [Compound 21, (2Z,3E)-5,5′-difluoro-3-((2-(piperazin-1-yl)ethoxy)imino)-[2,3′-biindolinylidene]-2′-one dihydrochloride]	–	–	–	–	–	–	some difference	reduced to a level similar to those of the control group	–
Cl.Cl.O=C1Nc2ccccc2/C1=C1/Nc2ccccc2/C1=N\OCCN1CCNCC1 [Compound 28, (2Z,3E)-3-((2-(piperazin-1-yl)ethoxy)imino)-[2,3′-biindolinylidene]-2′-one dihydrochloride]	–	–	–	–	–	–	some difference	reduced to a level similar to those of the control group	anticancer effects similar to the Comparative Group
Cl.Cl.O=C1Nc2ccc(F)cc2/C1=C1/Nc2ccccc2/C1=N\OCCN1CCNCC1 [Compound 33, (2Z,3E)-5′-fluoro-3-((2-(piperazin-1-yl)ethoxy)imino)-[2,3′-biindolinylidene]-2′-one dihydrochloride]	–	–	–	–	–	–	some difference	reduced to a level similar to those of the control group	anticancer effects similar to the Comparative Group
CN1CCN(CCO/N=C2/C(=C3/C(=O)Nc4ccc(F)cc43)Nc3ccccc32)CC1.Cl.Cl [Compound 34, (2Z,3E)-5′-fluoro-3-((2-(4-methylpiperazin-1-yl)ethoxy)imino)-[2,3′-biindolinylidene]-2′-one dihydrochloride]	–	–	–	–	–	–	some difference	reduced to a level similar to those of the control group	anticancer effects similar to the Comparative Group
